PubChem BioAssay AID1259308, NCATS | 2017
The whole screen tested about 59,000 reagents; below is an unselected part. About 1,510 of them (2.6%) were called active. 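Calls use total luciferase alone and ignore viability, so some active siRNAs may act by altering cell number.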 Reagents against one gene are numbered here. Not all columns of the deposit are shown. Reagent sequences are not shown.

- Screen: 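Candidate targets for better recombinant protein yield in mammalian cells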 (primary screen)
- Cells: human HEK293 embryonic kidney cells stably expressing firefly luciferase (HEK-CMV-Luc2-Hygro)
- Knock-down reagent: single siRNA against human genes, 0.8 pmol siRNA per well
- Timing: 72 h
- Detection: 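Luciferase light (ONE-Glo) measured on one replicate plate set and viability (CellTiter-Glo) on the other, scaled to a negative control siRNA, with robust z-scores and luciferase per cell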
- Scale: total luciferase, z-score and total luciferase, % of control: higher = more reporter protein produced
- Call rule: 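An siRNA counts as active if its total luciferase robust z-score exceeds 3; genes with two or more such siRNAs out of three were retested with fresh siRNAs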
- Meaning of the calls: active = raised luciferase; inactive = no rise

gene	reagent	total luciferase, z-score	total luciferase, % of control	call
CNGA4 (cyclic nucleotide gated channel subunit alpha 4)	1	0.0841	83.6	inactive
CNGA4 (cyclic nucleotide gated channel subunit alpha 4)	2	-1.82	45.8	inactive
CNGA4 (cyclic nucleotide gated channel subunit alpha 4)	3	-0.145	79	inactive
ARF4 (ARF GTPase 4)	1	-0.118	79.5	inactive
ARF4 (ARF GTPase 4)	2	1.15	105	inactive
ARF4 (ARF GTPase 4)	3	0.946	101	inactive
ALOX15 (arachidonate 15-lipoxygenase)	1	-1.17	58.6	inactive
ALOX15 (arachidonate 15-lipoxygenase)	2	0.682	95.5	inactive
ALOX15 (arachidonate 15-lipoxygenase)	3	0.266	87.2	inactive
CNDP2 (carnosine dipeptidase 2)	1	-0.327	75.4	inactive
CNDP2 (carnosine dipeptidase 2)	2	-0.0246	81.4	inactive
CNDP2 (carnosine dipeptidase 2)	3	0.202	85.9	inactive
THAP5 (THAP domain containing 5)	1	0.53	92.4	inactive
THAP5 (THAP domain containing 5)	2	0.185	85.6	inactive
THAP5 (THAP domain containing 5)	3	-1.45	53.1	inactive
APEH (acylaminoacyl-peptide hydrolase)	1	0.992	102	inactive
APEH (acylaminoacyl-peptide hydrolase)	2	-2.11	39.9	inactive
APEH (acylaminoacyl-peptide hydrolase)	3	-1.13	59.4	inactive
NR4A1 (nuclear receptor subfamily 4 group A member 1)	1	0.98	101	inactive
NR4A1 (nuclear receptor subfamily 4 group A member 1)	2	-0.072	80.5	inactive
NR4A1 (nuclear receptor subfamily 4 group A member 1)	3	-1.43	53.4	inactive
RFX1 (regulatory factor X1)	1	-0.148	78.9	inactive
RFX1 (regulatory factor X1)	2	0.436	90.6	inactive
RFX1 (regulatory factor X1)	3	1.12	104	inactive
FNBP1L (formin binding protein 1 like)	1	-0.215	77.6	inactive
FNBP1L (formin binding protein 1 like)	2	0.656	94.9	inactive
FNBP1L (formin binding protein 1 like)	3	-0.892	64.1	inactive
NHP2 (NHP2 ribonucleoprotein)	1	0.933	100	inactive
NHP2 (NHP2 ribonucleoprotein)	2	6.07	203	active
NHP2 (NHP2 ribonucleoprotein)	3	0.47	91.2	inactive
LYG2 (lysozyme g2)	1	-0.185	78.2	inactive
LYG2 (lysozyme g2)	2	0.424	90.3	inactive
LYG2 (lysozyme g2)	3	-0.0936	80	inactive
RPL5P1 (ribosomal protein L5 pseudogene 1)	1	-2.88	24.7	inactive
RPL5P1 (ribosomal protein L5 pseudogene 1)	2	-1	61.9	inactive
RPL5P1 (ribosomal protein L5 pseudogene 1)	3	-3.09	20.4	inactive
DPY19L2 (dpy-19 like 2)	1	4.88	179	active
DPY19L2 (dpy-19 like 2)	2	0.112	84.1	inactive
DPY19L2 (dpy-19 like 2)	3	-0.714	67.7	inactive
CXCL11 (C-X-C motif chemokine ligand 11)	1	1.34	108	inactive
CXCL11 (C-X-C motif chemokine ligand 11)	2	-0.655	68.9	inactive
CXCL11 (C-X-C motif chemokine ligand 11)	3	-0.759	66.8	inactive
ARMC6 (armadillo repeat containing 6)	1	1.3	108	inactive
ARMC6 (armadillo repeat containing 6)	2	-0.177	78.4	inactive
ARMC6 (armadillo repeat containing 6)	3	2.18	125	inactive
JADE2 (jade family PHD finger 2)	1	1.72	116	inactive
JADE2 (jade family PHD finger 2)	2	0.784	97.5	inactive
JADE2 (jade family PHD finger 2)	3	-0.0432	81	inactive
PLIN3 (perilipin 3)	1	0.00608	82	inactive
PLIN3 (perilipin 3)	2	0.457	91	inactive
PLIN3 (perilipin 3)	3	1.54	113	inactive
ADGRG5 (adhesion G protein-coupled receptor G5)	1	-0.985	62.3	inactive
ADGRG5 (adhesion G protein-coupled receptor G5)	2	0.94	101	inactive
ADGRG5 (adhesion G protein-coupled receptor G5)	3	0.174	85.3	inactive
GAB2 (GRB2 associated binding protein 2)	1	0.474	91.3	inactive
GAB2 (GRB2 associated binding protein 2)	2	0.583	93.5	inactive
GAB2 (GRB2 associated binding protein 2)	3	-1.01	61.7	inactive

5 neighbouring reagents already listed:
gene	reagent	total luciferase, z-score	total luciferase, % of control	call
NHP2 (NHP2 ribonucleoprotein)	1	0.933	100	inactive
NHP2 (NHP2 ribonucleoprotein)	2	6.07	203	active
NHP2 (NHP2 ribonucleoprotein)	3	0.47	91.2	inactive
LYG2 (lysozyme g2)	1	-0.185	78.2	inactive
LYG2 (lysozyme g2)	2	0.424	90.3	inactive
